The values below come from patent US20210130401A1 (THE REGENTS OF THE UNIVERSITY OF MICHIGAN, priority 2017, published 2021).

This data set is described as follows: general procedure: hybrid (solid and solution phase) peptide synthesis; 2-chlorotrityl chloride resin (ChemPep, 1 mmol/g); EDCl, HOAt, DIPEA (solution couplings). As to conditions: for final purity (method not given): Waters ACQUITY UPLC, reverse-phase SunFire C18 5 um 4.6x150 mm, 0.1% TFA water/CH3CN; for cyclisation yield: cyclisation step.
[1] abbreviates: whole synthesis, scale of the general procedure 0.1 mmol, TFA salt.
The mark [2] stands for this setting: whole synthesis, over 4 steps, scale of the general procedure 0.1 mmol, TFA salt.
The mark [3] stands for this setting: late stage modification step, TFA salt.
Where [4] appears, read: whole synthesis, over 4 steps, scale of the general procedure 0.1 mmol, CF3COOH salt.

Turning to “N-((3R,6S,9S,12R)-6-ethyl-9-(3-guanidinopropyl)-12-methyl-3-(naphthalen-1-yl)-2,5,8,11-tetraoxo-1,4,7,10-tetraazacyclotetradecan-12-yl)isobutyramide”, the isolated mass (whole synthesis, TFA salt) was found to be 3.3 mg. Further, under setting [1], the “final purity (method not given)” value is given as greater than 98%. Further, the isolated yield under setting [2] is reported as 6%.

For the substance “N-((3R,6S,9S,12R)-3-(cyclohexylmethyl)-9-(3-((4,5-dihydro-1H-imidazol-2-yl)amino)propyl)-6-ethyl-12-methyl-2,5,8,11-tetraoxo-1,4,7,10-tetraazacyclotetradecan-12-yl)isobutyramide”, under setting [3], the step yield is reported as 76% and the “final purity (method not given)” value is on record as greater than 98%.

For “N-((3R,6S,9S,12R)-6-ethyl-12-methyl-9-(2-((1-methylpiperidin-4-yl)amino)ethyl)-2,5,8,11-tetraoxo-3-phenyl-1,4,7,10-tetraazacyclotetradecan-12-yl)isobutyramide”, under setting [3], the step yield is 65% yield and the “final purity (method not given)” value was greater than 98% purity.

Consider “N-((3R,6S,9S,12R)-3-cyclopentyl-6-ethyl-9-(3-guanidinopropyl)-12-methyl-2,5,8,11-tetraoxo-1,4,7,10-tetraazacyclotetradecan-12-yl)isobutyramide”, for which the isolated yield under setting [4] was determined as 31%.

In the case of “N-((3R,6S,9S,12R)-9-(3-((1H-imidazol-2-yl)amino)propyl)-6-ethyl-12-methyl-2,5,8,11-tetraoxo-3-phenyl-1,4,7,10-tetraazacyclotetradecan-12-yl)isobutyramide”, under setting [3], the step yield came to 24% yield and the “final purity (method not given)” value is greater than 98% purity.

For “N-((3R,6S,9S,12R)-6-ethyl-9-(3-guanidinopropyl)-3-(3-methoxyphenyl)-12-methyl-2,5,8,11-tetraoxo-1,4,7,10-tetraazacyclotetradecan-12-yl)isobutyramide”, under setting [3], the step yield is 42% and the “final purity (method not given)” value was greater than 98%.

For the substance “N-((3R,6S,9S,12R)-6-ethyl-3-(3-fluorobenzyl)-9-(3-guanidinopropyl)-12-methyl-2,5,8,11-tetraoxo-1,4,7,10-tetraazacyclotetradecan-12-yl)isobutyramide”, the isolated yield under setting [4] was 31%.

In the case of “N-((3R,6S,12R)-6-ethyl-12-methyl-2,5,8,11-tetraoxo-3-phenyl-9-(2-(pyridin-2-ylamino)ethyl)-1,4,7,10-tetraazacyclotetradecan-12-yl)isobutyramide”, under setting [3], the step yield turned out to be 54% yield and the “final purity (method not given)” value was greater than 98% purity.

In the case of “N-((3R,6S,9S,12R)-6-ethyl-9-(3-guanidinopropyl)-12-methyl-2,5,8,11-tetraoxo-3-phenyl-1,4,7,10-tetraazacycloheptadecan-12-yl)isobutyramide”, under “over 3 steps from 36b, TFA salt”, the cyclisation yield is listed as 28% yield over 3 steps.

Turning to “(9H-fluoren-9-yl)methyl ((6R,9S,12S,15R)-6-(4-chlorophenyl)-9-ethyl-4,15-dimethyl-5,8,11,14-tetraoxo-12-(3-(3-((2,2,4,6,7-pentamethyl-2,3-dihydrobenzofuran-5-yl)sulfonyl)guanidino)propyl)-4,7,10,13-tetraazaoctadeca-1,17-dien-15-yl)carbamate”, the step yield (coupling step, TFA salt) worked out at 44% yield.

For the substance “N-((3S,6S,9S,12R)-6-ethyl-12-methyl-9-(3-(3-methylguanidino)propyl)-2,5,8,11-tetraoxo-3-phenyl-1,4,7,10-tetraazacyclotetradecan-12-yl)isobutyramide”, the isolated yield under setting [2] turned out to be 7% yield over 4 steps.

With “N-((3R,6S,9S,12R)-6-ethyl-3-(4-fluorobenzyl)-9-(3-guanidinopropyl)-12-methyl-2,5,8,11-tetraoxo-1,4,7,10-tetraazacyclotetradecan-12-yl)isobutyramide”, under setting [4], the isolated yield is 27%.

Turning to “N-((3R,6S,9S,12R)-6-ethyl-12-methyl-9-(3-(3-methylguanidino)propyl)-2,5,8,11-tetraoxo-3-phenyl-1,4,7,10-tetraazacyclotetradecan-12-yl)isobutyramide”, under “whole synthesis, over 4 steps from resin 24, scale of the general procedure 0.1 mmol, TFA salt”, the isolated yield was 15.4% yield over 4 steps. Besides, under setting [1], the difficulty met result was “D-α-phenylglycine was isomerized to L-α-phenylglycine during the solid phase peptide synthesis”.

Turning to “N-((3R,6S,9S,12R)-6-ethyl-3-(2-fluorobenzyl)-9-(3-guanidinopropyl)-12-methyl-2,5,8,11-tetraoxo-1,4,7,10-tetraazacyclotetradecan-12-yl)isobutyramide”, under setting [4], the isolated yield was 30%.

On to “N-((3R,6S,9S,12R)-6-ethyl-3-(2-fluorophenyl)-9-(3-guanidinopropyl)-12-methyl-2,5,8,11-tetraoxo-1,4,7,10-tetraazacyclotetradecan-12-yl)isobutyramide”, for which the isolated mass (whole synthesis, TFA salt) is 10.5 mg. Also, the “final purity (method not given)” value under setting [1] is given as greater than 98%. Also, the isolated yield under setting [2] amounted to 18%.

On to “N-((3R,6S,9S,12R)-3-(4-chlorophenyl)-6-ethyl-9-(3-guanidinopropyl)-12-methyl-2,5,8,11-tetraoxo-1,4,7,10-tetraazacyclotetradecan-12-yl)isobutyramide”, for which the isolated yield under setting [4] was determined as 20%.

Consider “(R)—N-((6S,9S,12R)-9-ethyl-12-(4-fluorophenyl)-1-imino-14-methyl-7,10,13-trioxo-1-(2,2,4,6,7-pentamethyl-2,3-dihydrobenzofuran-5-sulfonamido)-2,8,11,14-tetraazaheptadec-16-en-6-yl)-2-isobutyramido-2-methylpent-4-enamide”, for which, where the note is “coupling step, TFA salt”, the step yield is listed as 58% yield.

Turning to “N-((3R,6S,9S,12R)-6-((R)-sec-butyl)-9-(3-guanidinopropyl)-12-methyl-2,5,8,11-tetraoxo-3-phenyl-1,4,7,10-tetraazacyclotetradecan-12-yl)isobutyramide”, the isolated mass (whole synthesis, TFA salt) turned out to be 7.8 mg. Also, the “final purity (method not given)” value under setting [1] was greater than 98%. Moreover, the isolated yield under setting [2] was 14%.

Consider “N-((3R,6S,9S,12R)-3-(cyclohexylmethyl)-6-ethyl-12-methyl-9-(3-(3-nitroguanidino)propyl)-2,5,8,11-tetraoxo-1,4,7,10-tetraazacyclotetradecan-12-yl)isobutyramide”, for which, under setting [3], the step yield is reported as 93% and the “final purity (method not given)” value was greater than 98%.

Turning to “N-((3R,6S,9S,12R)-6-ethyl-12-methyl-9-(((1-methylpiperidin-4-yl)amino)methyl)-2,5,8,11-tetraoxo-3-phenyl-1,4,7,10-tetraazacyclotetradecan-12-yl)isobutyramide”, under setting [3], the step yield amounted to 65% yield and the “final purity (method not given)” value is reported as greater than 98% purity.

For the substance “N-((3R,6S,9S,12R)-6-ethyl-9-(3-guanidinopropyl)-12-methyl-2,5,8,11-tetraoxo-3-phenyl-1,4,7,10-tetraazacyclohexadecan-12-yl)isobutyramide”, for the setting “over 3 steps from 36a, CF3COOH salt”, the cyclisation yield stood at 53% yield over 3 steps.

As to “N-((3R,6S,12R)-6-ethyl-12-methyl-2,5,8,11-tetraoxo-9-phenethyl-3-phenyl-1,4,7,10-tetraazacyclotetradecan-12-yl)isobutyramide”, where the note is “whole synthesis, TFA salt”, the isolated mass amounted to 3.9 mg. In addition, the “final purity (method not given)” value under setting [1] is given as greater than 98% purity. Where the note is “whole synthesis, over 3 steps, scale of the general procedure 0.1 mmol, TFA salt”, the isolated yield amounted to 7% yield over 3 steps.

As for “N-((3R,6S,9S,12R)-6-ethyl-9-(3-guanidinopropyl)-12-methyl-2,5,8,11-tetraoxo-3-phenyl-1,4,7,10-tetraazacyclotetradecan-12-yl)isobutyramide”, the isolated yield under setting [2] is given as 8.7% yield over 4 steps.

On to “N-((3R,6S,9S,12R)-6-ethyl-9-(3-guanidinopropyl)-12-methyl-3-(naphthalen-1-ylmethyl)-2,5,8,11-tetraoxo-1,4,7,10-tetraazacyclotetradecan-12-yl)isobutyramide”, for which the isolated yield under setting [4] is 15%.

With “N-((3R,6S,9S,12R)-3-(cyclohexylmethyl)-6-ethyl-12-methyl-9-(3-((5-methyl-1,4,5,6-tetrahydropyrimidin-2-yl)amino)propyl)-2,5,8,11-tetraoxo-1,4,7,10-tetraazacyclotetradecan-12-yl)isobutyramide”, under setting [3], the step yield is given as 87% and the “final purity (method not given)” value is given as greater than 98%.

In the case of “N-((3R,6S,9S,12R)-6-ethyl-12-methyl-2,5,8,11-tetraoxo-3-phenyl-9-(3-(pyridin-2-ylamino)propyl)-1,4,7,10-tetraazacyclotetradecan-12-yl)isobutyramide”, under setting [3], the step yield is 45% yield and the “final purity (method not given)” value is greater than 98% purity.

For the substance “(9H-fluoren-9-yl)methyl ((6R,9S,12S,15R)-9-ethyl-4,15-dimethyl-5,8,11,14-tetraoxo-12-(3-(3-((2,2,4,6,7-pentamethyl-2,3-dihydrobenzofuran-5-yl)sulfonyl)guanidino)propyl)-6-phenyl-4,7,10,13-tetraazaoctadeca-1,17-dien-15-yl)carbamate”, the step yield (coupling step, TFA salt) is on record as 80% yield.

With “N-((3R,6S,9S,12R)-6-ethyl-12-methyl-9-(3-((1-methylpiperidin-4-yl)amino)propyl)-2,5,8,11-tetraoxo-3-phenyl-1,4,7,10-tetraazacyclotetradecan-12-yl)isobutyramide”, under setting [3], the step yield is 50% yield and the “final purity (method not given)” value is reported as greater than 98% purity.

Regarding “N-((3R,6S,9S,12R)-9-(3-(3-carbamimidoylguanidino)propyl)-3-(cyclohexylmethyl)-6-ethyl-12-methyl-2,5,8,11-tetraoxo-1,4,7,10-tetraazacyclotetradecan-12-yl)isobutyramide”, under setting [3], the step yield is reported as 38% and the “final purity (method not given)” value is recorded as greater than 98%.
